PubChem BioAssay AID1224830 | NIAID | 2016

Screen: 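Regulators of TLR4 signalling towards TNF-alpha in macrophage-like cells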 (primary screen)
Cell system: human THP-1 monocytic leukaemia cells, TNF dual-luciferase reporter clone, PMA-differentiated to macrophage-like cells
Reagent: siRNA pool against human genes, 50 nM
Duration: LPS for 4 h, given about 3 days after siRNA transfection
Conditions: bacterial LPS (TLR4 ligand), 10 ng/ml
Measurement: 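Ratio of firefly to renilla light, scaled to the plate median and expressed as a robust z-score per replicate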
Scale: TNF reporter robust z-score: higher = stronger TNF reporter response to LPS
Call rule: 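Each well counts as active if its z-score is over 2.8 or under -1.5; controls are left without a call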
In all, the deposit lists about 18,000 reagents; shown is a part drawn at random. About 2,900 of them (16%) count as active. 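Calls are made per well; low scores hint the gene aids the LPS response, high scores that it dampens it.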 Unmarked entries are inactive. Repeated entries: four replicate wells of each siRNA pool.

| gene | TNF reporter robust z-score |
| --- | --- |
| NCLN (nicalin) | -1.01 |
| NCLN (nicalin) | -0.64 |
| NCLN (nicalin) | -0.15 |
| NCLN (nicalin) | -0.05 |
| IKZF2 (IKAROS family zinc finger 2) | -0.8 |
| IKZF2 (IKAROS family zinc finger 2) | 0.47 |
| IKZF2 (IKAROS family zinc finger 2) | -0.69 |
| IKZF2 (IKAROS family zinc finger 2) | 1.15 |
| INTS6 (integrator complex subunit 6) | 4.77 (active) |
| INTS6 (integrator complex subunit 6) | 2.73 |
| INTS6 (integrator complex subunit 6) | 2.58 |
| INTS6 (integrator complex subunit 6) | 4.62 (active) |
| RNF20 (ring finger protein 20) | 1.11 |
| RNF20 (ring finger protein 20) | -0.13 |
| RNF20 (ring finger protein 20) | 1.31 |
| RNF20 (ring finger protein 20) | 1.07 |
| CCM2L (CCM2 like scaffold protein) | -0.27 |
| CCM2L (CCM2 like scaffold protein) | 3.91 (active) |
| CCM2L (CCM2 like scaffold protein) | 0.27 |
| CCM2L (CCM2 like scaffold protein) | -0.28 |
| TMEM117 (transmembrane protein 117) | -0.19 |
| TMEM117 (transmembrane protein 117) | 1.19 |
| TMEM117 (transmembrane protein 117) | 0.06 |
| TMEM117 (transmembrane protein 117) | -0.36 |
| IL38 (interleukin 38) | -1.64 (active) |
| IL38 (interleukin 38) | -0.97 |
| IL38 (interleukin 38) | -0.28 |
| IL38 (interleukin 38) | 0.08 |
| PTPRZ1 (protein tyrosine phosphatase receptor type Z1) | 0.82 |
| PTPRZ1 (protein tyrosine phosphatase receptor type Z1) | 0.13 |
| PTPRZ1 (protein tyrosine phosphatase receptor type Z1) | 0.58 |
| PTPRZ1 (protein tyrosine phosphatase receptor type Z1) | 0.69 |
| KMT5B (lysine methyltransferase 5B) | -1.3 |
| KMT5B (lysine methyltransferase 5B) | -1.31 |
| KMT5B (lysine methyltransferase 5B) | -1.25 |
| KMT5B (lysine methyltransferase 5B) | -0.83 |
| EPHB4 (EPH receptor B4) | -0.19 |
| EPHB4 (EPH receptor B4) | -1.05 |
| EPHB4 (EPH receptor B4) | 0.35 |
| EPHB4 (EPH receptor B4) | -0.91 |
| OR4K5 (olfactory receptor family 4 subfamily K member 5) | 0.47 |
| OR4K5 (olfactory receptor family 4 subfamily K member 5) | -0.48 |
| OR4K5 (olfactory receptor family 4 subfamily K member 5) | 0.88 |
| OR4K5 (olfactory receptor family 4 subfamily K member 5) | 0.78 |
| SAA4 (serum amyloid A4, constitutive) | 0.85 |
| SAA4 (serum amyloid A4, constitutive) | 0.3 |
| SAA4 (serum amyloid A4, constitutive) | 0.34 |
| SAA4 (serum amyloid A4, constitutive) | -0.52 |
| LYPD6 (LY6/PLAUR domain containing 6) | 1.07 |
| LYPD6 (LY6/PLAUR domain containing 6) | 0.73 |
| LYPD6 (LY6/PLAUR domain containing 6) | 0.72 |
| LYPD6 (LY6/PLAUR domain containing 6) | 0.58 |
| IL2RG (interleukin 2 receptor subunit gamma) | 0.39 |
| IL2RG (interleukin 2 receptor subunit gamma) | 0.98 |
| IL2RG (interleukin 2 receptor subunit gamma) | 1.53 |
| IL2RG (interleukin 2 receptor subunit gamma) | 1.1 |
| AMY1B (amylase alpha 1B) | -0.01 |
| AMY1B (amylase alpha 1B) | 0.02 |
| AMY1B (amylase alpha 1B) | 0.37 |
| AMY1B (amylase alpha 1B) | 0.48 |
| GPRC5C (G protein-coupled receptor class C group 5 member C) | -0.28 |
| GPRC5C (G protein-coupled receptor class C group 5 member C) | -0.21 |
| GPRC5C (G protein-coupled receptor class C group 5 member C) | -0.37 |
| GPRC5C (G protein-coupled receptor class C group 5 member C) | 0.74 |
| HNRNPCL1 (heterogeneous nuclear ribonucleoprotein C like 1) | -0.85 |
| HNRNPCL1 (heterogeneous nuclear ribonucleoprotein C like 1) | -1.19 |
| HNRNPCL1 (heterogeneous nuclear ribonucleoprotein C like 1) | -1.18 |
| HNRNPCL1 (heterogeneous nuclear ribonucleoprotein C like 1) | -0.49 |
| DLEU7 (deleted in lymphocytic leukemia 7) | -0.89 |
| DLEU7 (deleted in lymphocytic leukemia 7) | -0.03 |
| DLEU7 (deleted in lymphocytic leukemia 7) | -0.18 |
| DLEU7 (deleted in lymphocytic leukemia 7) | -0.01 |
| SPI1 (Spi-1 proto-oncogene) | -2.38 (active) |
| SPI1 (Spi-1 proto-oncogene) | -2.39 (active) |
| SPI1 (Spi-1 proto-oncogene) | -2.45 (active) |
| SPI1 (Spi-1 proto-oncogene) | -2.35 (active) |
| PRKCB (protein kinase C beta) | 1.17 |
| PRKCB (protein kinase C beta) | 1.41 |
| PRKCB (protein kinase C beta) | 2.85 (active) |
| PRKCB (protein kinase C beta) | 1.26 |
| SYNGR3 (synaptogyrin 3) | 0.25 |
| SYNGR3 (synaptogyrin 3) | -0.43 |
| SYNGR3 (synaptogyrin 3) | 0.4 |
| SYNGR3 (synaptogyrin 3) | 0.09 |
| APOOL (apolipoprotein O like) | 0.56 |
| APOOL (apolipoprotein O like) | 1.05 |
| APOOL (apolipoprotein O like) | 1.65 |
| APOOL (apolipoprotein O like) | 2.89 (active) |
| CSTF2T (cleavage stimulation factor subunit 2 tau variant) | 0.34 |
| CSTF2T (cleavage stimulation factor subunit 2 tau variant) | 1.27 |
| CSTF2T (cleavage stimulation factor subunit 2 tau variant) | -0.01 |
| CSTF2T (cleavage stimulation factor subunit 2 tau variant) | 0.36 |
| PDE9A (phosphodiesterase 9A) | -0.58 |
| PDE9A (phosphodiesterase 9A) | -0.75 |
| PDE9A (phosphodiesterase 9A) | 1.23 |
| BTN2A1 (butyrophilin subfamily 2 member A1) | -0.86 |
| BTN2A1 (butyrophilin subfamily 2 member A1) | 0.1 |
| BTN2A1 (butyrophilin subfamily 2 member A1) | 0.25 |
| BTN2A1 (butyrophilin subfamily 2 member A1) | 0.55 |
| RPS15A (ribosomal protein S15a) | -0.01 |
| RPS15A (ribosomal protein S15a) | 0.08 |
| RPS15A (ribosomal protein S15a) | 1.77 |
| RPS15A (ribosomal protein S15a) | 2.67 |
| ONECUT1 (one cut homeobox 1) | -0.16 |
| ONECUT1 (one cut homeobox 1) | 0.6 |
| ONECUT1 (one cut homeobox 1) | 0.94 |
| ONECUT1 (one cut homeobox 1) | 1.54 |
| FAM153CP (family with sequence similarity 153 member C, pseudogene) | -0.57 |
| FAM153CP (family with sequence similarity 153 member C, pseudogene) | -0.06 |
| FAM153CP (family with sequence similarity 153 member C, pseudogene) | -0.87 |
| FAM153CP (family with sequence similarity 153 member C, pseudogene) | -0.68 |
